From publication PMC6902597
No constants are given. Whether binding was seen depends on the method and setting. Binding seen in cells or lysates may run through a third protein. Some binding calls cover weakened binding; strength is not graded here.

Sequences of proteins named here, by UniProt entry; tags and fusion partners are left off.
UniProt Q9H6I2: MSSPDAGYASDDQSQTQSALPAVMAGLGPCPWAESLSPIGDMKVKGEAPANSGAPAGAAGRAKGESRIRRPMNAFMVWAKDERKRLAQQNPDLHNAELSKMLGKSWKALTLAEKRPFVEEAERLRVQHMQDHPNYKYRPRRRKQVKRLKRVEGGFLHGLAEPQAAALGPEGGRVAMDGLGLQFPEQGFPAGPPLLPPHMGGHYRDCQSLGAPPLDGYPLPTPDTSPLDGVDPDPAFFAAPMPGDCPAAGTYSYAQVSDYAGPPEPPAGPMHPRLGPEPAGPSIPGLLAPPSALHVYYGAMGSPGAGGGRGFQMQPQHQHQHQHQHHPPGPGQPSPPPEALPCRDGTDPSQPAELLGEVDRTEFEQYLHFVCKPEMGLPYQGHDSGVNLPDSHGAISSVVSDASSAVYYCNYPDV
UniProt P35222: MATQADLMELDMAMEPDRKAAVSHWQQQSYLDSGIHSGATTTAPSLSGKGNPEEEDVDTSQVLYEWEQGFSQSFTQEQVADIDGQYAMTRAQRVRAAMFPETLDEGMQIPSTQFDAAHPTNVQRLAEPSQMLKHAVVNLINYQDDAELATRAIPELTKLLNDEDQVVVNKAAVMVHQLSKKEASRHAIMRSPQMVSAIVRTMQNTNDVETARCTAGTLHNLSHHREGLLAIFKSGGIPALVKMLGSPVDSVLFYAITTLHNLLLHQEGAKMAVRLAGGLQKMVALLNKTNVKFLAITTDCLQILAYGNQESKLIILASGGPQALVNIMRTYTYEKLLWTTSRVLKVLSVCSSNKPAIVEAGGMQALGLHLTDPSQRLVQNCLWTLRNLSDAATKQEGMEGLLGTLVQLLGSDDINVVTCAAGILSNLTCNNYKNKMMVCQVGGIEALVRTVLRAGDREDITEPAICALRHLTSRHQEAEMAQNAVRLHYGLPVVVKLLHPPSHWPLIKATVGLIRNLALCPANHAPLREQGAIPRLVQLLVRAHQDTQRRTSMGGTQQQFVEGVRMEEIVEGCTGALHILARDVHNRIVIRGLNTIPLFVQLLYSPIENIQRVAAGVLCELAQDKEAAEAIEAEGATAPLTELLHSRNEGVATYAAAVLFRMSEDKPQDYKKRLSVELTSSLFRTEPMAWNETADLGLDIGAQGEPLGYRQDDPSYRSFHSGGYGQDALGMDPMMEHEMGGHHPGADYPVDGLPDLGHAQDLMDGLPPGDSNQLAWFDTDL

Target: Sox17, endogenous (human (endogenous in TPC-1)) (UniProt Q9H6I2)
Assay: co-IP; endogenous proteins, cytoplasm, cells without IL-22 (Additional file 1: Fig. S3)

- binding: binds
Substance: β-catenin, endogenous (from UniProt P35222 1-781)
